# Source: PubChem BioAssay AID540276 (National Center for Advancing Translational Sciences (NCATS), 2011)
# Among all 300,000 compounds or so, about 5,400 (1.8%) were called active. The inconclusive results got no clear call from the source; some entries with a clear call stand among them for comparison. Calls come from the whole dose curve; tested in HEK293 cells. Where the call is inconclusive, the potency comes from a doubtful curve fit. Some structures have more than one record in an assay (separate samples or runs), and their calls can disagree.
# Assay: qHTS for inhibitors of binding or entry into cells for Marburg Virus
# Details: Marburg virus pseudotyped entry inhibition, cell reporter; series mostly up to 37.8 µM
# Potency is the fitted concentration of half-maximal effect.
row,SMILES,Potency
1,O/N=C/c1ccc(OCC(O)COc2ccc(/C=N/O)cc2)cc1,inactive
2,CCOC(=O)c1c(CN2CCN(CCO)CC2)n(-c2ccccc2)c2cc(Br)c(O)cc12,"inconclusive: 11.2 µM [inhibitor, partial curve, poor fit]"
3,COc1cc2c(cc1NCc1ccc3c(c1)OCO3)oc1ccccc12,"inconclusive: 35.5 µM [inhibitor, single point]"
4,Cc1cc(C)cc(NC(=S)N2C3CCCC2CC(NC(=O)C2CC2)C3)c1 (stereo unspecified),"inconclusive: 4.47 µM [activator, partial curve, poor fit]"
5,CCn1nc(C)c(CN2CCC(n3nccc3NC(=O)Cc3ccccc3)CC2)c1C,inactive
6,C[C@]12CC[C@@H]3c4ccc(O)cc4CC[C@H]3[C@H]1CC[C@H]2O,"inconclusive: 0.794 µM [inhibitor, full curve, poor fit]"
7,CCn1c(N)c(C(=O)Nc2ccccc2C(=O)OC)sc1=S,inactive
8,O=C(COc1ccc2ccc(=O)oc2c1)N1CCN(C(=O)C2COc3ccccc3O2)CC1 (stereo unspecified),inactive
9,Cc1cc(=S)nc(-c2ccccn2)[nH]1,"inconclusive: 35.5 µM [inhibitor, single point]"
10,Cc1cc(SC#N)cc(C)c1NC(=O)CCl,inactive
11,C=C(C)[C@@H]1CC=C(CN2CCC(N3CCC(C(=O)N4CCCC4)CC3)CC2)CC1,"inconclusive: 7.08 µM [inhibitor, full curve, poor fit]"
12,Cc1cc(NC(=O)CCC(=O)N(Cc2ccccc2)C(C(=O)NC2CCCC2)c2ccc(C)o2)no1 (stereo unspecified),"inconclusive: 10 µM [inhibitor, partial curve, poor fit]"
13,CCn1c(CSc2nc(C)cc(C)n2)nnc1SCC(=O)Nc1nc(-c2ccccc2)cs1,"inconclusive: 16.4 µM [inhibitor, single point]"
14,O=C1C2=C(C(=O)c3ccccc31)[C@H]1O[C@](CCCCN3C(=O)c4ccccc4C3=O)(Cc3c1ccc1ccccc31)O2,inconclusive: 0.0009 µM [inhibitor]
15,C=CCSc1nc(N)c2c(C)c(C)sc2n1,"inconclusive: 11.6 µM [activator, partial curve, poor fit]"
16,CNCCc1ccc(O)c(O)c1,"inconclusive: 0.631 µM [inhibitor, full curve]"
17,O=C(NCc1ccccn1)c1cc(-c2ccccc2Cl)nc2ccccc12,inactive
18,O=C(CSc1nc2[nH]ncc2c(=O)n1-c1ccc(Cl)c(Cl)c1)NCc1ccccc1Cl,"inconclusive: 7.94 µM [inhibitor, partial curve, poor fit]"
19,COc1ccc(-c2noc(CCC(=O)Nc3cccc(C)c3)n2)cc1,inactive
20,CCc1ccc(OCC(=O)N2CCc3ccccc32)cc1,"inconclusive: 0.562 µM [activator, partial curve, poor fit]"
21,CCOC(=O)C1=C(CSc2nc3ccccc3s2)NC(=O)NC1c1ccc(OC)cc1 (stereo unspecified),"inconclusive: 14.6 µM [inhibitor, partial curve, poor fit]"
22,CC(C)Cc1ccc(C(=O)Nc2ccc(Cc3ccncc3)cc2)o1,"inconclusive: 22.4 µM [inhibitor, single point]"

row,SMILES,Potency
1,CCc1ccccc1NC(=O)c1ccc(S(=O)(=O)NCC2CCCO2)cc1 (stereo unspecified),inactive
2,O=C(Cc1ccccc1F)Nc1ccc2c(c1)CCC2,"inconclusive: 1.41 µM [activator, partial curve, poor fit]"
3,CCN(CC)S(=O)(=O)c1ccc2c(c1)N(CC(=O)Nc1cccc(C#N)c1)C(=O)CO2,inactive
4,CCCc1cc(NCCCN2CCOCC2)n2c(nc3ccccc32)c1C#N,inactive
5,O=C1SCCN1N=Cc1ccc([N+](=O)[O-])o1,"inconclusive: 17.8 µM [inhibitor, partial curve]"
6,CC(NC(=S)NCCc1ccccc1)C(c1cccs1)N1CCN(Cc2ccccc2)CC1 (stereo unspecified),"inconclusive: 29.1 µM [inhibitor, single point]"
7,O=C(Nc1ccc(Cl)cc1Cl)c1ccc(Br)o1,"inconclusive: 14.1 µM [activator, single point]"
8,COc1ccc(NC(=O)C2CCCN(S(=O)(=O)c3ccc(F)cc3)C2)cc1 (stereo unspecified),inactive
9,CCOc1ccc(NC(=O)c2ccc(Br)o2)c([N+](=O)[O-])c1,"inconclusive: 1.26 µM [activator, partial curve, poor fit]"
10,O=c1oc2ccccc2cc1-c1cn2cc(Cc3cc(Cl)ccc3Cl)sc2n1,"inconclusive: 1 µM [inhibitor, full curve, poor fit]"
11,O=[N+]([O-])c1ccc(S(=O)Cc2ccccc2)c([N+](=O)[O-])c1 (stereo unspecified),"inconclusive: 35.5 µM [inhibitor, single point]"
12,Cc1ccc(CN(C(=O)COc2ccccc2[N+](=O)[O-])c2ccccn2)o1,"inconclusive: 35.5 µM [inhibitor, single point]"
13,O=C(Cn1nnc(-c2ccccc2NC(=O)c2ccccc2F)n1)NCc1ccco1,"inconclusive: 3.98 µM [inhibitor, partial curve]"
14,CN(C)CCNC(=S)Nc1ccccc1C(C)(C)C,inactive
15,Cc1ccc2sc(NC(=O)CN3C(=O)c4ccccc4C3=O)nc2c1C,inactive
16,CCC1(c2ccc(F)cc2)NC(=O)N(CC(=O)Nc2ccc(-c3nc4ccc(C)cc4s3)cc2)C1=O (stereo unspecified),"inconclusive: 5.01 µM [inhibitor, partial curve, poor fit]"
17,COc1ccc(N2CCN(Cc3nc4c(c(=O)[nH]c(=O)n4C)n3Cc3ccccc3C)CC2)cc1,inactive
18,Cc1ccc2c(COC(=O)c3ccccc3Br)cc(=O)oc2c1,"inconclusive: 1.26 µM [activator, partial curve, poor fit]"
19,N#CC(C#N)=C(Nc1ccc(F)cc1)SCc1cccc(Br)c1,"inconclusive: 11.2 µM [inhibitor, partial curve, poor fit]"
20,Cc1ccc(CSc2nnc(SCC(=O)N/N=C/C=C/c3ccco3)s2)cc1,"inconclusive: 15.8 µM [inhibitor, single point]"
21,O=C(Nn1c(-c2ccc(Br)cc2)nc2ccccc2c1=O)c1cccnc1,"inconclusive: 6.31 µM [activator, single point]"
22,CC1(C)CC(=O)C2=C(C1)O[C@@]1(c3ccsc3)Cc3cc(C#N)ccc3[C@H]2O1,"inconclusive: 1.68 µM [inhibitor, partial curve, poor fit]"

# No new results follow: an excerpt of the list.
row,SMILES,Potency
5,O=C1SCCN1N=Cc1ccc([N+](=O)[O-])o1,"inconclusive: 17.8 µM [inhibitor, partial curve]"
6,CC(NC(=S)NCCc1ccccc1)C(c1cccs1)N1CCN(Cc2ccccc2)CC1 (stereo unspecified),"inconclusive: 29.1 µM [inhibitor, single point]"
7,O=C(Nc1ccc(Cl)cc1Cl)c1ccc(Br)o1,"inconclusive: 14.1 µM [activator, single point]"
8,COc1ccc(NC(=O)C2CCCN(S(=O)(=O)c3ccc(F)cc3)C2)cc1 (stereo unspecified),inactive

# Next part:

row,SMILES,Potency
1,CN(Cc1ccccc1)C1CC(=O)N(c2ccc(C(=O)O)cc2)C1=O (stereo unspecified),inactive
2,O=C1c2ccccc2-c2cccc(C(=O)N3CCCCCC3)c21,"inconclusive: 5.62 µM [activator, single point]"
3,C/C(CCC(C)C)=N\Nc1cc(C)c2ccccc2n1,"inconclusive: 15.8 µM [inhibitor, single point]"
4,CC(=O)c1c(C)[nH]c(C)c1C(C)=O,"inconclusive: 1.16 µM [inhibitor, partial curve, poor fit]"
5,O=C(CN1C(=O)c2ccccc2S1(=O)=O)c1cccc(Br)c1,"inconclusive: 1.12 µM [inhibitor, full curve]"
6,CC(C)NC(=O)NC(=O)COC(=O)CCCSc1nc2ccccc2s1,"inconclusive: 5.62 µM [activator, single point]"
7,CCCCn1c(O)c(C(CC)=NCc2ccc3c(c2)OCO3)c(=O)[nH]c1=O,"inconclusive: 6.31 µM [inhibitor, partial curve, poor fit]"
8,COc1ccc(C(=O)NCc2nnc(SCC(=O)N3CCCC3)o2)cc1,inactive
9,Cc1cccc(-n2c(SCc3ccc(C#N)cc3)nnc2-c2c[nH]c3ccccc23)c1,"inconclusive: 23.1 µM [inhibitor, single point]"
10,Cc1cccc(N(Cc2ccccc2)C(=O)c2ccc(F)c(S(=O)(=O)N3CCOCC3)c2)c1,active: 11.2 µM
11,CCOCCCNC(=O)c1cc(=O)n(Cc2cccc(C)c2)c2ccccc12,"inconclusive: 12.6 µM [inhibitor, single point]"
12,CCOC(=O)c1c(/N=C/c2c(O)n(-c3ccccc3F)c(=S)[nH]c2=O)sc2c1CCCC2,inactive
13,CCCCc1ccc(CC(=O)O)cc1,inactive
14,Cc1ccc(NC(=O)C2CCN(S(=O)(=O)c3ccc4c(c3)NC(=O)C(C)S4)CC2)cc1C (stereo unspecified),"inconclusive: 22.4 µM [inhibitor, single point]"
15,CCOc1ccc(S(=O)(=O)NCc2ccc(C)cc2)c2cccnc12,"inconclusive: 5.62 µM [inhibitor, single point]"
16,COc1ccc(N/C=C(\C#N)c2ccc(OCCCF)cc2)cc1,"inconclusive: 0.1 µM [inhibitor, full curve, poor fit]"
17,COc1ccc(C2C(C(=O)Nc3ccccc3)=C(C)Nc3nc(CCCO)nn32)cc1 (stereo unspecified),"inconclusive: 6.51 µM [inhibitor, single point]"
18,CCOC(=O)c1oc2ccccc2c1NC(=O)c1ccccc1OC,"inconclusive: 20.6 µM [inhibitor, single point]"
19,CN1CCN(CC(=O)Nc2c(C(=O)c3ccccc3)oc3ccccc23)CC1,"inconclusive: 22.4 µM [inhibitor, single point]"
20,COc1ccc(-c2cc(C(=O)N3CCN(c4ccc(F)cc4)CC3)no2)cc1,"inconclusive: 20 µM [inhibitor, single point]"
21,COc1ccc(C(=O)C2CCCN(Cc3cn[nH]c3-c3ccc(F)cc3)C2)cc1OC (stereo unspecified),"inconclusive: 12.6 µM [inhibitor, partial curve, poor fit]"
22,Cc1ccc(-n2c(-c3ccc(Br)cc3)c[n+]3c2CCc2ccc4cccnc4c2-3)cc1,active: 2.31 µM
